# Source: the supplement of paper PMC11732987, “Enantioselective OTUD7B fragment discovery through chemoproteomics screening and high-throughput optimisation” (Communications Chemistry, 2025)
# Some of the results follow. The data scatter; read single values as rough.
# System: T1, NCAM1 C829
# T1 sequence (whole entry): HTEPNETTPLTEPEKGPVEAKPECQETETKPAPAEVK
# Assay: log2 mean competition ratio of IA-DTB cysteine labelling (DMSO/compound) (log2 ratio); higher = stronger cysteine engagement by compound
# Settings: 50 µM; treatment time: 4 h; cell line lysate: HEK293T
# Protocol: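 IA-DTB competitive cysteine chemoproteomics in HEK293T RIPA lysate. Lysates were treated with compound 29 or 30 at 50 or 200 µM for 4 h, then IA-DTB (500 µM, 1 h), trypsin-digested, NeutrAvidin-enriched and analysed by diaPASEF. Competition ratio = intensity DMSO / intensity compound (n=4 treated, n=64 DMSO); binding: mean log2 CR ≥ 1 and p ≤ 0.05 plus QC filters. Target is the cysteine site.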
row,SMILES,log2 mean competition ratio
1,O=C(CCl)N[C@H]1CCCc2ccccc21,-0.323
2,O=C(CCl)N[C@@H]1CCCc2ccccc21,-0.256

# Same assay, conditions: 200 µM; treatment time: 4 h; cell line lysate: HEK293T
row,SMILES,log2 mean competition ratio
1,O=C(CCl)N[C@H]1CCCc2ccccc21,-0.576
2,O=C(CCl)N[C@@H]1CCCc2ccccc21,-0.265
